# Publication PMC7392003
# The chains behind the UniProt entries cited, without tags or fusion partners.
# UniProt O95832: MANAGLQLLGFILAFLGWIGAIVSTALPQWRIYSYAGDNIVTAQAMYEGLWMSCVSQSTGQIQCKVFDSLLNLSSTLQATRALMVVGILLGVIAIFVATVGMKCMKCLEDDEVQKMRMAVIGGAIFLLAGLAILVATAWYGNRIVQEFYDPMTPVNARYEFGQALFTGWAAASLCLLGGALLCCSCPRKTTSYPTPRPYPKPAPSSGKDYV
# These are yes or no findings as the source states them, for the method shown. In cells and extracts the contact can be indirect. Some entries that bind do so weakly or less than the wild type. Tags and fused reporters may be left off the sequences shown.
# Target: T1, EPHB6-myc (ephrin receptor B6) (UniProt O15197)
# T1 sequence: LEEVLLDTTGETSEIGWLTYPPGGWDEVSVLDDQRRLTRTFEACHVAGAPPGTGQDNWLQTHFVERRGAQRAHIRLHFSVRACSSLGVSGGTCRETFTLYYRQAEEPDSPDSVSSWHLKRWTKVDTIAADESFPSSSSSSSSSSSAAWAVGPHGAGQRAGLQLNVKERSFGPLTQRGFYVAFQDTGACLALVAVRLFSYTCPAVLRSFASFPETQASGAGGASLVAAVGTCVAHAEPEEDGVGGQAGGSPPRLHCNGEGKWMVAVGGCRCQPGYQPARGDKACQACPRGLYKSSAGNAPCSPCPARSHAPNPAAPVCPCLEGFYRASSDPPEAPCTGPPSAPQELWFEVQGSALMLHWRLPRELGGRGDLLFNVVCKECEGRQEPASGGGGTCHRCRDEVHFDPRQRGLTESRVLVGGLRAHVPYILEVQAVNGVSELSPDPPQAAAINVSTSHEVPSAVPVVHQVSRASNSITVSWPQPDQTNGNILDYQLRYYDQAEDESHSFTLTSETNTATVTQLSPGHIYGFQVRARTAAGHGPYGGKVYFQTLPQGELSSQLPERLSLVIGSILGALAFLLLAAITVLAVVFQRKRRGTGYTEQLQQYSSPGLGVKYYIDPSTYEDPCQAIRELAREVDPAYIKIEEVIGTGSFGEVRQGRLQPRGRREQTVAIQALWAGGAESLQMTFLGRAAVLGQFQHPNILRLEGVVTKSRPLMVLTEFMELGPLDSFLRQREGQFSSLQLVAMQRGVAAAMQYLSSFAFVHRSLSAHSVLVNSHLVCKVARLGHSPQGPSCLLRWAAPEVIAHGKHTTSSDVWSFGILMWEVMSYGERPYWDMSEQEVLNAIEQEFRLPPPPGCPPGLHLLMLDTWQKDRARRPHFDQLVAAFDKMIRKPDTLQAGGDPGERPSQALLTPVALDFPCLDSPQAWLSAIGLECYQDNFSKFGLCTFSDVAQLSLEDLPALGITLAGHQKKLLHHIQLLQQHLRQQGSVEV
# Assay: co-IP; HA-CLDN1 and/or EPHB6-myc overexpressed in HEK293T; 0.5 mg total lysate in IP lysis buffer (100 mM NaCl, 1% NP-40, 100 uM Na3VO4, 50 mM NaF, 30 mM sodium pyrophosphate, 20 mM Tris-HCl pH 7.5); IP with anti-myc antibody or mouse IgG on protein G magnetic beads; immunoblot with anti-HA
substance,measurement,value
HA-CLDN1 (Claudin 1) (from UniProt O95832 1-211),binding,binds
